Taken from: PubChem BioAssay AID504808 (Drosophila RNAi Screening Center, 2011)

Assay: 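Chromatin factors that keep E2F targets switched off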 (primary screen)
Cell system: Drosophila S2 cells
Reagents: long dsRNA against Drosophila genes
Measured: 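Firefly luciferase driven by E2F sites, normalised to Renilla luciferase on the same minimal promoter, measured by plate reader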
Reading the numbers: E2F firefly: higher = more E2F reporter activity; Renilla normaliser: higher = more normaliser reporter signal
Active means: 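a knock-down counted as active when the firefly/Renilla E2F signal rose above 50%, a threshold chosen arbitrarily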
The screen tested about 21,000 reagents; shown is a random part of those that have a named target and a result. In the full data, 18 (0.084%) are marked active. 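Raw counts without plate normalisation, one of two replicates; the ratio scores behind the calls were not deposited.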 The record does not give: the amount of reagent, the time to read-out.

gene knocked down	amplicon	E2F firefly, rep 1	Renilla normaliser, rep 1	Call
CG7692	DRSC10902	2.40e5	8820	inactive
Cpsf6	DRSC10781	63846	3629	inactive
Acsx3	DRSC14309	67924	3424	inactive
jagn	DRSC12152	74504	4277	inactive
wake	DRSC16148	1.05e5	5450	inactive
wake	DRSC16149	1.10e5	5548	inactive
mask	DRSC15370	1.36e5	6478	inactive
mask	DRSC16005	78586	3916	inactive
mask	DRSC16018	66440	3694	inactive
CG11777	DRSC06081	1.50e5	5287	inactive
CG9062	DRSC07327	1.10e5	4483	inactive
beag	DRSC15296	65337	3693	inactive
ubl	DRSC04998	1.26e5	4526	inactive
CG15014	DRSC08468	87922	3559	inactive
pum	DRSC12722	80725	3316	inactive
pum	DRSC12726	85040	3192	inactive
pum	DRSC17037	1.25e5	5584	inactive
pum	DRSC17038	1.40e5	6511	inactive
CG9154	DRSC03150	84047	4652	inactive
ORMDL	DRSC11737	1.31e5	6400	inactive
CG32259	DRSC08082	1.29e5	3690	inactive
CG13737	DRSC10064	1.07e5	4809	inactive
ZAP3	DRSC17852	7663	836	inactive
ZAP3	DRSC17853	1.32e5	6685	inactive
ZAP3	DRSC18249	1.25e5	6855	inactive
rho-5	DRSC02847	1.58e5	4918	inactive
CG10576	DRSC09745	75106	3290	inactive
CG1620	DRSC06603	82578	3230	inactive
CG17475	DRSC15238	1.31e5	6566	inactive
Taf10b	DRSC00792	1.45e5	5847	inactive
CG32631	DRSC19768	7176	636	inactive
CG12912	DRSC06227	81384	3903	inactive
CG6765	DRSC10706	1.06e5	3976	inactive
wupA	DRSC20385	2.37e5	7824	inactive
HPS1	DRSC06195	2944	188	inactive
CG14654 (retired record)	DRSC12240	1.39e5	6786	inactive
PyK	DRSC16806	1.49e5	8066	inactive
CG31515	DRSC13610	90059	2400	inactive
RpL18A	DRSC07538	85562	5588	inactive
TfIIB	DRSC03454	1.08e5	4832	inactive

Only “Renilla normaliser, rep 1”, for 14 of the entries above:
CG9062 [DRSC07327] = 4483
beag [DRSC15296] = 3693
ubl [DRSC04998] = 4526
CG15014 [DRSC08468] = 3559
pum [DRSC12722] = 3316
pum [DRSC12726] = 3192
pum [DRSC17037] = 5584
pum [DRSC17038] = 6511
CG9154 [DRSC03150] = 4652
ORMDL [DRSC11737] = 6400
CG32259 [DRSC08082] = 3690
CG13737 [DRSC10064] = 4809
ZAP3 [DRSC17852] = 836
ZAP3 [DRSC17853] = 6685

Next records follow:
gene knocked down	amplicon	E2F firefly, rep 1	Renilla normaliser, rep 1	Call
CG32590	DRSC19594	2.49e5	6340	inactive
Obp19a	DRSC20487	1.46e5	7452	inactive
CG34433	DRSC15077	1.22e5	6067	inactive
Vha55	DRSC16896	65886	3525	inactive
CG7536	DRSC20050	1.45e5	4971	inactive
CG32081	DRSC09861	1.38e5	6330	inactive
Pp1-87B	DRSC16794	59909	3814	inactive
CG13154	DRSC06279	89030	3985	inactive
CG13482	DRSC10024	77954	3903	inactive
CG31778	DRSC00283	81806	3533	inactive
crm	DRSC18754	2068	884	inactive
CG34197 (retired record)	DRSC05791	1.58e5	5936	inactive
CG5521	DRSC15828	1.17e5	5890	inactive
Tmem43	DRSC10964	82916	3614	inactive
CG32985	DRSC02634	1.47e5	5565	inactive
Nmda1	DRSC07479	2942	188	inactive
CG7568	DRSC16259	1.26e5	6027	inactive
CG13002	DRSC19521	1.42e5	6066	inactive
CG30480	DRSC06736	94449	3859	inactive
tbrd-3	DRSC04295	1.05e5	4523	inactive
btd	DRSC18747	1.43e5	6497	inactive
Syt1	DRSC00156	1.37e5	6759	inactive
Syt1	DRSC00157	1.29e5	6989	inactive
Syt1	DRSC00158	1.31e5	6204	inactive
Syt1	DRSC00840	79993	3570	inactive
Sgs7	DRSC11281	1.30e5	7119	inactive
CG11608	DRSC14334	1.21e5	6154	inactive
CG43902	DRSC17999	92347	5227	inactive
Adgf-A2	DRSC09507	1.23e5	3922	inactive
CG11737	DRSC14364	1.42e5	6557	inactive
dhd	DRSC18761	8608	792	inactive
CG11263	DRSC09832	1.33e5	8251	inactive
Rpn3	DRSC03318	70561	4793	inactive
CG5510	DRSC15823	1.12e5	5717	inactive
Rbp1-like	DRSC19828	1.43e5	7868	inactive
Klp61F	DRSC08671	80394	4162	inactive
CG3706	DRSC18649	1.26e5	6088	inactive
asRNA:CR33945	DRSC14080	78133	2624	inactive
CG9922	DRSC16579	1.28e5	5123	inactive
CG32793	DRSC18145	1.19e5	6031	inactive
CG32793	DRSC18194	1.09e5	6166	inactive
Tom40	DRSC18796	34293	2717	inactive
Cpr66D	DRSC10640	91369	3771	inactive
Cpr66D	DRSC10646	83232	3414	inactive
